Each structure is given as a SMILES string. “Also recorded” adds a separate entry of the source.

Data set [1] concerns InfA[PA] and InfB[PA] DNA. Description: Duplexed RPA detection with 1:1 mixture of MB- and PZ9-labelled probes on HeartCheck sensor. On the set-up: species or system Influenza A and Influenza B. Particulars: duplexed detection at 15 min, 10^7 copies of each target; for Imax of calculated Gaussian curve: third order polynomial baseline correction.
In data set [2] the test system is InfB[PA] DNA. Description: Electrochemical read-out of RPA with redox-labelled Fpg probes, positive reactions vs NTC. On the set-up: species or system Influenza B. Conditions: InfB[PA] Fpg probe mono-labelled.

For the molecule `CN(C)c1ccc2nc3ccc(N(C)C)cc3[s+]c2c1.[Cl-]` [Methylene Blue, 3,7-bis(Dimethylamino)-phenothiazin-5-ium chloride], in data set [1], the “σ of calculated Gaussian curve” value is 0.0311 and the “Imax of calculated Gaussian curve” value is listed as 301.5 nA.
As for `CN(CCCC(=O)O)c1ccc2nc3ccc(N(C)c4ccccc4)cc3[s+]c2c1.[Cl-]` [PZ9], in data set [1], the “σ of calculated Gaussian curve” value is reported as 0.0243 and the “Imax of calculated Gaussian curve” value is listed as 194 nA.
`CC/[N+](CCCS(=O)(=O)[O-])=c1/ccc2nc3ccc(N(C)CCC(=O)O)cc3oc-2c1` [PO2, N-(3-(N-methyl(2-carboxyethyl)amino)phenoxazin-7-ylidene)-N-ethyl(3-sulfonatopropyl)aminium chloride]: the “peak current values relative to other labels” value in data set [2] is reported as “approximately equal to those for PO1; also recorded: lower than peak currents obtained with MB”.
